Measured values as given in PubChem BioAssay AID624291 (National Center for Advancing Translational Sciences (NCATS), 2012).
In all, about 350,000 compounds went through this assay and about 220 (0.063%) were called active. Inconclusive results, whose numbers are uncertain, are shown with a selection of clear calls. Calls follow the shape of the dose curve; as a rule, active = well fitted activation curve with a large enough effect; inconclusive = small, poorly fitted or top-dose-only effect; inactive = no such curve, though single readings can be large or run the other way. Potencies of inconclusive entries are doubtful fits and often do not repeat.

Experiment: qHTS for Activators of Integrin-Mediated Alleviation for Muscular Dystrophy; also: nearly all actives have a fitted effect of over 60% in size;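 as to activation: 100% = response of the positive control SU9516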
Details: alpha7betagal myoblasts, beta-gal FDG fluorescence, 48 h; activation: at 38.3 µM (top of the series)
Method in brief: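 Alpha7betagal+/- myoblasts (passage 13) were plated 16-24 hr, then exposed to compounds (1:260 dilution of DMSO stock) for 48 hours at 37C. After MPER lysis, β-galactosidase reporter activity was read as FDG fluorescence (ex 480/em 540) after 30 minutes.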
Potency is read from the fitted curve at half-maximal effect.

| Compound | activation | Potency |
| --- | --- | --- |
| COc1cccc(/C=C(\C#N)c2nc3ccc(C)cc3[nH]2)c1OCC(=O)O | inactive: 5.9% | – |
| Cc1ccc(N/C=C2\CCCCC2=O)c(C)c1 | – | inconclusive: 3.16 µM [activator, single point] |
| N#Cc1ccc(OCC(O)CN2CCC(C(O)(c3ccccc3)c3ccccc3)CC2)cc1 (stereo not given) | – | inconclusive: 5.01 µM [activator, partial curve, poor fit] |
| COc1ccc(Cc2nc3ccccc3n2CC(=O)N/N=C/c2ccc(O)cc2)cc1OC | inactive: -21.9% | – |
| COC(=O)c1ccc(CSc2nnc3nc(C)cc(C)n23)cc1 | inactive: 0.66% | – |
| CCn1cnc2sc(C(=O)Oc3ccc(Br)cc3)c(C)c2c1=O | – | inconclusive: 28.2 µM [activator, single point] |
| O=C(O)COc1ccc(/C=N/NC(=O)Cc2ccc(Cl)cc2)cc1 | – | inconclusive: 11.2 µM [activator, partial curve, poor fit] |
| O=C(Nc1cccc2c1CCCC2)c1ccccc1Cl | – | inconclusive: 11.2 µM [activator, partial curve, poor fit] |
| COc1cccc(NC(=O)CN(C)C(=O)c2cc(S(=O)(=O)N3CCCCCC3)ccc2OC)c1 | – | inconclusive: 25.1 µM [activator, single point] |
| Nc1c(C(=O)C2CC2)sc2nc3c(cc12)CCC3 | – | inconclusive: 5.01 µM [activator, single point] |
| CC(C)(C)C1CCc2sc(C(=O)NNC(=O)CCl)cc2C1 (stereo not given) | inactive: -57.4% | – |
| COc1ccc(OC)c(C2=Nn3c(nnc3-c3cc(C)[nH]n3)SC2)c1 | inactive: -8.54% | – |
| O=C(Nc1cccc(Cl)c1N1CCOCC1)c1ccc2c(c1)OCCO2 | – | inconclusive: 8.91 µM [activator, partial curve, poor fit] |
| COc1cccc(-c2cc(C(=O)Nc3ccncc3)c3ccccc3n2)c1 | inactive: 1.77% | – |
| OC(CN1CCN(c2cccc(Cl)c2)CC1)c1ccccc1 (stereo not given) | – | inconclusive: 5.01 µM [activator, single point] |
| COc1ccc(CCNC(=O)COc2ccc(S(=O)(=O)NC3CCCCC3)cc2Cl)cc1OC | – | inconclusive: 11.2 µM [activator, partial curve, poor fit] |
| NNc1nc2cc3c(cc2s1)OCCO3 | – | inconclusive: 28.2 µM [activator, single point] |
| O=C(c1ccc(C(=O)N2CCCc3ccccc32)s1)N1CCCc2ccccc21 | inactive: -6.15% | – |
| COc1cccc(N2[C@@H](CC(C)=O)c3ccc(/C=C/C(C)=O)cc3S2(=O)=O)c1 | inactive: -41.6% | – |
| COc1ccc(-c2ccc(NCCN3CCOCC3)nn2)cc1OC | – | inconclusive: 3.55 µM [activator, single point] |

Sorted by heavy-atom count (ascending): 3 of the compounds above.

| Compound | activation | Potency |
| --- | --- | --- |
| NNc1nc2cc3c(cc2s1)OCCO3 | – | inconclusive: 28.2 µM [activator, single point] |
| O=C(c1ccc(C(=O)N2CCCc3ccccc32)s1)N1CCCc2ccccc21 | inactive: -6.15% | – |
| COc1ccc(CCNC(=O)COc2ccc(S(=O)(=O)NC3CCCCC3)cc2Cl)cc1OC | – | inconclusive: 11.2 µM [activator, partial curve, poor fit] |
